Where a chain is given by its changes, count along the chain named. Numbers in names are those of the source. These are yes or no findings as the source states them, for the method shown. In cells and extracts the contact can be indirect. Some results given as binding are weak or reduced against the parent protein; the word gives no strength. For some of these results: Sequences can lack the tags named with a protein.
What was measured:
[1] = biological target: 13MYC-Smc3 (UniProt Q9UQE7); experiment: proximity ligation
[2] = biological target: T1, Scc3-K1057C (yeast (budding yeast, Saccharomyces cerevisiae)) (UniProt P40541); experiment: cross-linking
T1 sequence: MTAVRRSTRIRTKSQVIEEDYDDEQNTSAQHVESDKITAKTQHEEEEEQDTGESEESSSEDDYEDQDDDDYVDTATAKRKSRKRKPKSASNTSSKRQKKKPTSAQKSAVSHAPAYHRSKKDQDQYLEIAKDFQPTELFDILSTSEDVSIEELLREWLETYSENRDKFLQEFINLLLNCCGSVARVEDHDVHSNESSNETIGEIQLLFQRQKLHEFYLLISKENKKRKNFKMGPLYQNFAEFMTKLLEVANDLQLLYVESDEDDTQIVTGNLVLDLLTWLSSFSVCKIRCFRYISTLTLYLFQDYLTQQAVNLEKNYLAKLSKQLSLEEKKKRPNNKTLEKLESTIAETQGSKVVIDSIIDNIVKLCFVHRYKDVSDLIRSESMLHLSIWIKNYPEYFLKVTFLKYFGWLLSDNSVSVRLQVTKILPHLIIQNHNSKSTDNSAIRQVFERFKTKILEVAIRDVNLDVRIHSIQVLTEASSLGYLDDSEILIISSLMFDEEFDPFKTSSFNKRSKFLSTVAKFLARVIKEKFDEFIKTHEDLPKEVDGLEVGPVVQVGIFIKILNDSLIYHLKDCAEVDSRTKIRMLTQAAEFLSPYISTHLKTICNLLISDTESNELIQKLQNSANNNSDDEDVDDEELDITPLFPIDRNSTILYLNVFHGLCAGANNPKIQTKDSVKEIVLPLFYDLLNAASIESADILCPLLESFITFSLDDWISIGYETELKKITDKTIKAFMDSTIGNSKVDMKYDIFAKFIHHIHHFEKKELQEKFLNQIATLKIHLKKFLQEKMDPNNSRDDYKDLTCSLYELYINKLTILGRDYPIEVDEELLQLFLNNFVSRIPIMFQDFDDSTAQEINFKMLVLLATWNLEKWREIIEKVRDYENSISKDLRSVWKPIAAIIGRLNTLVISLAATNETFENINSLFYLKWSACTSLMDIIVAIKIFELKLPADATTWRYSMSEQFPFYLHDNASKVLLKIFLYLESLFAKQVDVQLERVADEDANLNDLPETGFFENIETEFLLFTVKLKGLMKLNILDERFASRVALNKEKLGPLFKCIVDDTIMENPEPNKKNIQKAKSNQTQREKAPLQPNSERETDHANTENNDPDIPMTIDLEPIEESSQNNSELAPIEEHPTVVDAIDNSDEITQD

Chains of the proteins cited; added tags and fusions are not shown.
UniProt Q9UQE7: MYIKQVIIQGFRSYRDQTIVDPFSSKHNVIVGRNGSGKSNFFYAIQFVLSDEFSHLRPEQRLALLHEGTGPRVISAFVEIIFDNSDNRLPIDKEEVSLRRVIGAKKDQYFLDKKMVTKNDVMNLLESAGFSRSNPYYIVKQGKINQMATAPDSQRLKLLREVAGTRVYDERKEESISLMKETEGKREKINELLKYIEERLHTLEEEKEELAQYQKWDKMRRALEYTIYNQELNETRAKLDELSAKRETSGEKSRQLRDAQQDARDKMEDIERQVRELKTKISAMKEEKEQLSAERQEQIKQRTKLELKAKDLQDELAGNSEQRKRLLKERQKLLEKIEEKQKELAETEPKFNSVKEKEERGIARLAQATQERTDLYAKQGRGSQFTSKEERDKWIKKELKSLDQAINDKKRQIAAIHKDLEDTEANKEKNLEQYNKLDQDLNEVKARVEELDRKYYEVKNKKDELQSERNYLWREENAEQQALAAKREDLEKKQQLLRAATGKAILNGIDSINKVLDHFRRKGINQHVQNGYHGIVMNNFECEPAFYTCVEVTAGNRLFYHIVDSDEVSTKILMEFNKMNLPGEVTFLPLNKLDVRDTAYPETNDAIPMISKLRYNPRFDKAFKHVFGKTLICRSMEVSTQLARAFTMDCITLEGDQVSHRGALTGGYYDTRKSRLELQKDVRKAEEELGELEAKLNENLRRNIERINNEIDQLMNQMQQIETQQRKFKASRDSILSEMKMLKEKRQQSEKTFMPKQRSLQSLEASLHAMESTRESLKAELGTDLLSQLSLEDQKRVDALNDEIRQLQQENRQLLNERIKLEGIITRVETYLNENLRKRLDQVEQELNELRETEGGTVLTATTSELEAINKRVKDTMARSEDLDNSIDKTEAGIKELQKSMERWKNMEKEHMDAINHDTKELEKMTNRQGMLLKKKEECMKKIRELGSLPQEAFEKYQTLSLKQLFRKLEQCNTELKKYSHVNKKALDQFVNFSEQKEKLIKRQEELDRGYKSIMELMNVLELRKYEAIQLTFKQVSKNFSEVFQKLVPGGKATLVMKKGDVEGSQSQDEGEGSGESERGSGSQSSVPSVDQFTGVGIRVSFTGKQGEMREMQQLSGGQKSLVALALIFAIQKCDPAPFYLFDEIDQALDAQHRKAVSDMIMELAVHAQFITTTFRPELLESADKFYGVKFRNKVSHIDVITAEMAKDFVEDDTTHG

[3] = biological target: T2, GFP-Scc3 (yeast (budding yeast, Saccharomyces cerevisiae)), P40541; experiment: co-IP; conditions: remark: other sources report otherwise
T2 chain: T1 sequence with C1057K

[4] = biological target: T2, GFP-Scc3 (yeast (budding yeast, …)); experiment: co-IP; conditions: remark: other sources report otherwise

5FLAG-Smc3 (from UniProt Q9UQE7 1-1217)
binding [1]: binds

B1: Scc3-K99C (protein, UniProt P40541 1-1150)
chain: T1 sequence with K99C, C1057K
binding [2]: binds

B2: 5FLAG-Scc3, P40541 1-1150 (protein)
chain: T1 sequence with C1057K
binding [3]: binds | binding [4]: binds
